Reference: the supplement of paper PMC10849652
This is one part of the list.

By UniProt entry, the sequences of proteins in these tests, tags left out. Where a name states a change or a piece, a line headed by the entry shows the natural chain unless it says otherwise.
UniProt P08590, whole entry, looked up: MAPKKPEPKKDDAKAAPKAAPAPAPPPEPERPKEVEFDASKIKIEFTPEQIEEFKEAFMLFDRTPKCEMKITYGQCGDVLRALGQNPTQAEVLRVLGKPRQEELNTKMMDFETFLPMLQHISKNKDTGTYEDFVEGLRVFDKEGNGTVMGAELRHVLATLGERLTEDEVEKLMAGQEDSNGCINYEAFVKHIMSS
UniProt Q96DP5: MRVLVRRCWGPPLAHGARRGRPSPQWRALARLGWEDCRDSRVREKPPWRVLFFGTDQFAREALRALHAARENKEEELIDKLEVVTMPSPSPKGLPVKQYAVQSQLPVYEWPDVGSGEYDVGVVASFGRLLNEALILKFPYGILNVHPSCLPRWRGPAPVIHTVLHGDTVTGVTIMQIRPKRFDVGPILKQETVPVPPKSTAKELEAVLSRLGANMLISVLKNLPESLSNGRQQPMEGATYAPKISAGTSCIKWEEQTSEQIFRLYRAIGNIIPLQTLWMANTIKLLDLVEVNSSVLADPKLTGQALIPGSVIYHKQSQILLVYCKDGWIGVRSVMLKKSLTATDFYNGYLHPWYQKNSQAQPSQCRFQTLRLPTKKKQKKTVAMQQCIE
UniProt P03923, whole entry, looked up: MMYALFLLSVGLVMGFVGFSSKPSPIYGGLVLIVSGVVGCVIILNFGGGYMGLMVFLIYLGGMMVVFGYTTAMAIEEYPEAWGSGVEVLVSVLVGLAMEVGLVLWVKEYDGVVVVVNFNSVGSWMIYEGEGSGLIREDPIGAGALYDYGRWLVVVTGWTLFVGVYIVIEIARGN
UniProt Q8TAX7: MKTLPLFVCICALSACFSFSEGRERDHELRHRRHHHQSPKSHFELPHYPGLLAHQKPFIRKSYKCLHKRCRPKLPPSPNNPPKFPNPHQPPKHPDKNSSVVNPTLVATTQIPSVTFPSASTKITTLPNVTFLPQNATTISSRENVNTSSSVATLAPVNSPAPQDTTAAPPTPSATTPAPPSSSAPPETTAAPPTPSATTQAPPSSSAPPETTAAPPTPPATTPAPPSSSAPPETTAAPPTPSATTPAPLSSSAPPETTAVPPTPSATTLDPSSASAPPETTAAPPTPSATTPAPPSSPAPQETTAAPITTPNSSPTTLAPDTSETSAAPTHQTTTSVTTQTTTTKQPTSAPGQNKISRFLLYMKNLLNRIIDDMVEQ
UniProt Q9H6N6: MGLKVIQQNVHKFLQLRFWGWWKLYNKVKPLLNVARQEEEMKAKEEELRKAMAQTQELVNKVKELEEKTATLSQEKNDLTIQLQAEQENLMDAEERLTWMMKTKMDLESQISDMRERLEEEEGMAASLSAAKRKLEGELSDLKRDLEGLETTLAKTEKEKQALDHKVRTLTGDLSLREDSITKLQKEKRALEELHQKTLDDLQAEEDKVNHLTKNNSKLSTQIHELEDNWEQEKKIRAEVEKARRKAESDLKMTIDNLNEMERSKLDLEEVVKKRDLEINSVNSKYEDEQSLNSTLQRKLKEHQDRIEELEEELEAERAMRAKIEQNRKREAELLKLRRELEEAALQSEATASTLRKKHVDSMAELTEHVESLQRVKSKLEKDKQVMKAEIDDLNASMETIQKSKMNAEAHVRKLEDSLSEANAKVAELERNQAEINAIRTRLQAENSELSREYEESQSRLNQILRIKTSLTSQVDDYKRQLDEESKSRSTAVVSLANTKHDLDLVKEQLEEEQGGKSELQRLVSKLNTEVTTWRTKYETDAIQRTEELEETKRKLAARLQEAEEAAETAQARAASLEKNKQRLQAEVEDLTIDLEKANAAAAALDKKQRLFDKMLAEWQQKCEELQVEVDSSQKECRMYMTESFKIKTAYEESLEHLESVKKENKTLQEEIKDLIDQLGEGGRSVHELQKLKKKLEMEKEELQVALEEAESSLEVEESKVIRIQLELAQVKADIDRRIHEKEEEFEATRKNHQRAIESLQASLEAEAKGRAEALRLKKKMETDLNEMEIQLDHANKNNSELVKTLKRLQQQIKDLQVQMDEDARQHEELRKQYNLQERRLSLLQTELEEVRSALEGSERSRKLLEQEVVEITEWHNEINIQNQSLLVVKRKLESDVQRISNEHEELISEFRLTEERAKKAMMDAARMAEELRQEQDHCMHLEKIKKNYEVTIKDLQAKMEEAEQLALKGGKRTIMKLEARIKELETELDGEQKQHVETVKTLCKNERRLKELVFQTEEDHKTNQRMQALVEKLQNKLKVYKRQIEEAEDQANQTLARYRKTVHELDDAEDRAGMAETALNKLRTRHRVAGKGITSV
UniProt O75570: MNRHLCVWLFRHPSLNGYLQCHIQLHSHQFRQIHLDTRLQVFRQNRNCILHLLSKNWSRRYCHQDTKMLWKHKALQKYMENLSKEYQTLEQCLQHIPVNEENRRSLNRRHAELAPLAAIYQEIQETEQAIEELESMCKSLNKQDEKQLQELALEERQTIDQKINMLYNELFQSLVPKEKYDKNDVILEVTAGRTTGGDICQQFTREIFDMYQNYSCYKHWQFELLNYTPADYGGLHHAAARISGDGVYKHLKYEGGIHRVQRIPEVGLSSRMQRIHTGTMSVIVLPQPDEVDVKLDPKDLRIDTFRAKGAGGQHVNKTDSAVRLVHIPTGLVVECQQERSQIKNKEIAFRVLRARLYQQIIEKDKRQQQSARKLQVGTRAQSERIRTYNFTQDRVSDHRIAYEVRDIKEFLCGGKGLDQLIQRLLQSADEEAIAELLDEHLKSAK
UniProt Q2M296: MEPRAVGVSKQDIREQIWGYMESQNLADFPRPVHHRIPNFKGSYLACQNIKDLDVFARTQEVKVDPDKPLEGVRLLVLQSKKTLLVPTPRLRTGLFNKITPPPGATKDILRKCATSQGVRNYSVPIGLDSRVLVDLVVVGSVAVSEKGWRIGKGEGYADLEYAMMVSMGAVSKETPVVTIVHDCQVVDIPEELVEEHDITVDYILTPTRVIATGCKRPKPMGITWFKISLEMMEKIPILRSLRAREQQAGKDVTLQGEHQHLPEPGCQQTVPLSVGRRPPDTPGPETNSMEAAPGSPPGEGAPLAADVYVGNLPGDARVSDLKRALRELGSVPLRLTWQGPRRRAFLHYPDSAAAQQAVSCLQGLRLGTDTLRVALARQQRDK
UniProt P03897, whole entry, looked up: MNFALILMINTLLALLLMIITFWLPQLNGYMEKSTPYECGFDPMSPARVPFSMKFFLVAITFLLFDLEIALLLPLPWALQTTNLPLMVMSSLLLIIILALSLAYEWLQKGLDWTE
UniProt Q93083: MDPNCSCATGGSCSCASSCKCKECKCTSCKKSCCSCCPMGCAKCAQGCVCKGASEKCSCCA
UniProt P00414, whole entry, looked up: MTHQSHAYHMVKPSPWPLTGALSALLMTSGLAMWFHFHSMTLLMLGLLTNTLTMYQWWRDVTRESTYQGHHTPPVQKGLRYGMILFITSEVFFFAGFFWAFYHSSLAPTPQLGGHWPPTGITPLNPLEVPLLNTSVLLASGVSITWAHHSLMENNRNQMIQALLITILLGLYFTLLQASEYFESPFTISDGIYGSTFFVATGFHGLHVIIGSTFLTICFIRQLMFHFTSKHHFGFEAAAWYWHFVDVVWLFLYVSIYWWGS
UniProt P46199: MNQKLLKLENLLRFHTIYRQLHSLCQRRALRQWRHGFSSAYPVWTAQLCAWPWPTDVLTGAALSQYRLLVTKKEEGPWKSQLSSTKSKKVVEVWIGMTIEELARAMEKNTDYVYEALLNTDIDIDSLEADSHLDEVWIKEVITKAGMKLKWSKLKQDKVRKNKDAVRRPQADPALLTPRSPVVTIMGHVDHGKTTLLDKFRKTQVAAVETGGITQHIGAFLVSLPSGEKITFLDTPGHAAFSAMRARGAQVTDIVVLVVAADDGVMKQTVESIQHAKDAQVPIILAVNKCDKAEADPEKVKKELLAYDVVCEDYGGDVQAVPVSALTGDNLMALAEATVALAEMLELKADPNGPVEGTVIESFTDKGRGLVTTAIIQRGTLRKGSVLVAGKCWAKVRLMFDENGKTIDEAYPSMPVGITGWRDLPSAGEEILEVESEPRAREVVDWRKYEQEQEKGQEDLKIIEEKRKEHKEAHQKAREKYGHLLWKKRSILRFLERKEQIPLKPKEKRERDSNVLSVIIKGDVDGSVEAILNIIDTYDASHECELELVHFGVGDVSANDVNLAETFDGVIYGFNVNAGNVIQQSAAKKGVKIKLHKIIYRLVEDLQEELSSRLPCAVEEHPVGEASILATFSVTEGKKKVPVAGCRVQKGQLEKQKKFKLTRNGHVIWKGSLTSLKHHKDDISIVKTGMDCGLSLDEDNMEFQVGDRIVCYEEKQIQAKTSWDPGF
UniProt Q13126: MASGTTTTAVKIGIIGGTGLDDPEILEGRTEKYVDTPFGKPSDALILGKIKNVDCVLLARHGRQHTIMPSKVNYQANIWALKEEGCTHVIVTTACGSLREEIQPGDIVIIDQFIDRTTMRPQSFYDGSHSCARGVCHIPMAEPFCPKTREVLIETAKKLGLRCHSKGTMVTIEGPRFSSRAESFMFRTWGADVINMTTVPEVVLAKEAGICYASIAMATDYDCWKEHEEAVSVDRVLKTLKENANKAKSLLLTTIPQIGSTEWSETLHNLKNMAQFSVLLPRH
MTHFD1, A0A384N5Y3, UniProt A0A384N5Y3, whole entry, looked up: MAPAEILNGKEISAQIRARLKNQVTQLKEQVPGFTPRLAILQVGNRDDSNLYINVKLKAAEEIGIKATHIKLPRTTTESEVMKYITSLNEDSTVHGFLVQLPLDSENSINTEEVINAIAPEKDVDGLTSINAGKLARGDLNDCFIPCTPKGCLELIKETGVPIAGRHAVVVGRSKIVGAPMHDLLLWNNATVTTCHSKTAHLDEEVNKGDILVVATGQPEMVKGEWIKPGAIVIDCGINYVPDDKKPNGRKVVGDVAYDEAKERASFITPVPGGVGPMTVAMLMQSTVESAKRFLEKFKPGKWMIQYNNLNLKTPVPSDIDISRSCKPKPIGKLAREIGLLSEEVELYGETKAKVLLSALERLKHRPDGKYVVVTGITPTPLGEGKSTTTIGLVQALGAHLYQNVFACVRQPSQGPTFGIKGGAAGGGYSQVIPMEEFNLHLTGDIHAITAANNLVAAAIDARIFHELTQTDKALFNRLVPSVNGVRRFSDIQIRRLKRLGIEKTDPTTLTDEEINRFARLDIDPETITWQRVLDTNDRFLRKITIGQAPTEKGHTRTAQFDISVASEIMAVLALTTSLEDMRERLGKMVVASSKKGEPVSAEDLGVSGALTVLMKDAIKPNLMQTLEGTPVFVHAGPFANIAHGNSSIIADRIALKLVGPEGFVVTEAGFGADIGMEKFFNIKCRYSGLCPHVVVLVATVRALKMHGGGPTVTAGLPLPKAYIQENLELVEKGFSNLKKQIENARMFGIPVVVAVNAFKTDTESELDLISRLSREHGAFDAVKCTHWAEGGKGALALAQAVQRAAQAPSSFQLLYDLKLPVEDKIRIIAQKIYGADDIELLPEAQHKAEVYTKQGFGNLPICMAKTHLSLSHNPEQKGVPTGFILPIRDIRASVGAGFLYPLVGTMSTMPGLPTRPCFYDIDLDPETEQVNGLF
UniProt Q9BTC8: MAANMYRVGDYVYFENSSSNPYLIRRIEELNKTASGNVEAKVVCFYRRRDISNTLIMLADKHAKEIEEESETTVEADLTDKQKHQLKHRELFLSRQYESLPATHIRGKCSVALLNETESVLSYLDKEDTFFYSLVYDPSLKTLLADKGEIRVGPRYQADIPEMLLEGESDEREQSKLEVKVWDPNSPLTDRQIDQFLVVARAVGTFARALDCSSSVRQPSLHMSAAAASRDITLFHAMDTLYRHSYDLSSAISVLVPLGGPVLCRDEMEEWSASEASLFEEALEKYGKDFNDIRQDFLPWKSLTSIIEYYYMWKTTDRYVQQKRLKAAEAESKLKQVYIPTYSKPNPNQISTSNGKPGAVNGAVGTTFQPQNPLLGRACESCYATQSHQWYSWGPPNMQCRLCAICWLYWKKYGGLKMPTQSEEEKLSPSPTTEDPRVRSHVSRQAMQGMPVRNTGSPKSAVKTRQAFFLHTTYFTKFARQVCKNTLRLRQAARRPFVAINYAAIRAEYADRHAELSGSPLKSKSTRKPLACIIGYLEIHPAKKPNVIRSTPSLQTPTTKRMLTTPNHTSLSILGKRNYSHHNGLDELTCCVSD
UniProt P05976, whole entry, looked up: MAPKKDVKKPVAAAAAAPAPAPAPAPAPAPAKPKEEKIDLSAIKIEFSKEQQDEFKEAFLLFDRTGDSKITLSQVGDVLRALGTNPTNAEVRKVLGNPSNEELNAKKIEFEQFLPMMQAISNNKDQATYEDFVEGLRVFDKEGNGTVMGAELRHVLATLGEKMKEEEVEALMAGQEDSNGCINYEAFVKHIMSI
UniProt P03891, whole entry, looked up: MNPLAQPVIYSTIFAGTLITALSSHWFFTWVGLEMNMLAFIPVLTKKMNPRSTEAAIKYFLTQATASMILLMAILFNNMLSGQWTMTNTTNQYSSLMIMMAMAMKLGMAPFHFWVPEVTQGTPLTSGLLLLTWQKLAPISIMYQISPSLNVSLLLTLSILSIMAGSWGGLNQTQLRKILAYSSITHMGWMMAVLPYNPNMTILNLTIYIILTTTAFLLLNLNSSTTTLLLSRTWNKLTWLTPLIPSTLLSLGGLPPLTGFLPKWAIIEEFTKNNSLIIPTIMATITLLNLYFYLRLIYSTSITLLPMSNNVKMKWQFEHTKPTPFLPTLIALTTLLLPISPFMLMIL

Tests used:
Test in all cases: log2 fold change, soluble protein after heating vs DMSO (PISA); higher = thermal stabilisation; K562 cells, 10 uM, 30 min; active = over 0.2 and 3.5 SD of the protein, either way, in both replicates (recomputed)
[1] = compound: C1=CC2=NC=CN=C2C=C1/C=C/3\C(=O)NC(=O)S3
How it was run: (§1)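 Soluble protein was defined as the supernatant after 21,000xg for 90 min. It came from K562 cells at 2×10^6 cells/mL given 10 μM compound for 30 min, heated in aliquots for 3 min across 48°C-58°C, pooled, and extracted in PBS with 0.5% NP-40 at 4°C, and was quantified by TMTpro 16plex LC-MS/MS with equalised channel sums. Thermal stability against control samples, from duplicates, is reported as log2 fold change.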

[2] = compound: C#Cc1cccc(Nc2ncnc3cc(OCCOC)c(OCCOC)cc23)c1 [erlotinib]
How it was run: as §1

[3] = compound: C1=CC(=CC=C1C2=NC3=C(N2)C=C(C=C3)C(=O)N)OC4=CC=C(C=C4)Cl
How it was run: as §1

[4] = compound: C1=CC=C(C=C1)C2=NC(=C(N2)C3=CC=NC=C3)C4=CC(=C(C=C4)Cl)O
How it was run: as §1

[5] = compound: C/C(=N\NC(=O)C1=CC(=CC=C1)S(=O)(=O)N2CCOCC2)/C3=C(C=CC(=C3)Cl)O
How it was run: as §1

[6] = compound: C1=CC(=C(C=C1Cl)C2=NC3=NC=CN=C3C(=N2)NC4=CC=NC=C4)F
How it was run: as §1

[7] = compound: C1=CC2=C(C=CC(=C2)/C=C\3/C(=O)NC(=NCC4=CC=CS4)S3)N=C1
How it was run: as §1

[8] = compound: C1=CC=C2C(=C1)C3=NNC4=CC=CC(=C43)C2=O
How it was run: as §1

[9] = compound: C1CCN(C1)C(=O)NC2=CC=CC(=C2)NC3=NC=C(C(=N3)NCCC4=CN=CN4)Br
How it was run: as §1

[10] = compound: C1CN(CCC1(CC2=CC=C(C=C2)Cl)N)C3=NC=NC4=C3C=CN4
How it was run: as §1

Measured: log2 fold change

MYH15 (UniProt Q9Y2K3)
inactive: [1] 0.392

MYH2 (UniProt Q9UKX2)
inactive: [1] -0.103

MYL3 (UniProt P08590)
inactive: [2] -0.003 | [3] 0.031 | [1] 0.051 | [4] 0

MRPS14 (UniProt O60783)
inactive: [5] 0.012 | [6] 0.091 | [7] 0.154 | [1] -0.004 | [4] 0.049 | [8] 0.025 | [9] 0.214 | [10] -0.032

MTFMT (UniProt Q96DP5)
inactive: [6] -0.288 | [9] 0.14 | [10] -0.092

MT-ND6 (UniProt P03923)
inactive: [5] -0.039 | [7] -0.132 | [1] -0.013 | [8] -0.258 | [9] 0.111 | [10] -0.05

MYL6 (UniProt G3V1V0)
inactive: [2] -0.034 | [5] -0.003 | [3] -0.112 | [7] -0.006 | [1] 0.168 | [4] -0.027 | [8] -0.087 | [9] -0.021 | [10] 0.087

MTMR4 (UniProt Q9NYA4)
inactive: [2] -0.052 | [3] 0.179 | [4] -0.252

MSANTD2 (UniProt Q6P1R3)
inactive: [6] 0.012 | [9] -0.081 | [10] -0.052

MUC7 (UniProt Q8TAX7)
inactive: [6] -0.884 | [1] -0.113 | [4] -0.844

MYH16 (UniProt Q9H6N6)
inactive: [2] -0.044 | [5] 0.102 | [3] 0.049 | [7] -0.21 | [1] 0.284 | [8] 0.044 | [9] -0.089 | [10] -0.082

MTMR1 (UniProt Q13613)
inactive: [5] 0.088 | [6] -0.137 | [7] 0.157 | [1] 0.01 | [4] -0.012 | [8] -0.09 | [9] -0.096 | [10] -0.098

MRPS36 (UniProt D6R941)
inactive: [6] 0.055

MYH6 (UniProt P13533)
inactive: [2] 0.24 | [6] 0.039 | [3] -0.121

MTRF1 (UniProt O75570)
inactive: [5] 0.18 | [7] -0.116 | [8] -0.067

Quoted from the entries so far (two entries):
MYH16 (UniProt Q9H6N6)
inactive: [2] -0.044 | [5] 0.102 | [3] 0.049 | [7] -0.21 | [1] 0.284 | [8] 0.044 | [9] -0.089 | [10] -0.082

MTMR1 (UniProt Q13613)
inactive: [5] 0.088 | [6] -0.137 | [7] 0.157 | [1] 0.01 | [4] -0.012 | [8] -0.09 | [9] -0.096 | [10] -0.098

Continued.

MTHFSD (UniProt Q2M296)
inactive: [5] -0.061 | [7] -0.017 | [8] 0.04 | [9] -0.077 | [10] 0.091

MTSS1 isoform 5 (UniProt O43312)
inactive: [5] 0.057 | [7] 0.129 | [8] -0.11 | [9] 0.032 | [10] -0.199

MT-CO1 (UniProt P00395)
inactive: [2] -0.087 | [5] -0.076 | [3] 0.025 | [7] 0.214 | [1] 0.004 | [4] 0.038 | [8] -0.049 | [9] -0.092 | [10] 0.011

MT-ND3 (UniProt P03897)
inactive: [2] -0.123 | [3] -0.156 | [1] 0.344 | [4] -0.093

MTHFD1L (UniProt B7ZM99)
inactive: [2] -0.093 | [5] 0.044 | [3] 0.051 | [7] 0.052 | [1] -0.042 | [4] 0.05 | [8] -0.014

MT1L (UniProt Q93083)
inactive: [2] -0.003 | [5] -0.244 | [3] 0 | [7] 0.177 | [4] 0.028 | [8] -0.136 | [9] 0.187 | [10] 0.245

MT-CO3 (UniProt P00414)
inactive: [5] 0.204 | [7] 0.178 | [4] -0.005 | [8] -0.002 | [9] -0.138 | [10] 0.152

MYD88 isoform 6 (UniProt Q99836)
inactive: [5] 0.204 | [6] 0.092 | [7] -0.067 | [1] 0.05 | [8] 0.134

MTIF2 (UniProt P46199)
inactive: [6] -0.092

MTAP isoform 2 (UniProt Q13126)
inactive: [1] 0.068

MTERF3 (UniProt Q96E29)
inactive: [2] -0.011 | [3] -0.019 | [1] 0.069 | [4] 0.02 | [9] -0.173 | [10] 0.046

MTHFD2L (UniProt Q9H903)
inactive: [6] -0.271

MTHFD1, A0A384N5Y3
inactive: [5] 0.056 | [6] 0.081 | [7] 0.146 | [1] -0.06 | [4] 0.036 | [8] 0.01 | [9] -0.004 | [10] 0.033

MTA3 (UniProt Q9BTC8)
inactive: [2] -0.04 | [6] 0.039 | [3] -0.08 | [9] 0.116 | [10] 0.037

MYLK (UniProt Q15746)
inactive: [2] 0.25 | [3] -0.146 | [1] -0.005 | [4] 0.291 | [9] 0.008 | [10] -0.066

MYL1 (UniProt P05976)
inactive: [1] 0.033

MYNN (UniProt Q9NPC7)
inactive: [4] -0.095

MXRA7 isoform 3 (UniProt P84157)
inactive: [4] -0.08

2 entries picked at random from those above, as already listed:
MYL1 (UniProt P05976)
inactive: [1] 0.033

MYNN (UniProt Q9NPC7)
inactive: [4] -0.095

The results go on.

MT-ND2 (UniProt P03891)
inactive: [2] -0.067 | [5] -0.063 | [3] 0.062 | [7] -0.108 | [1] 0.104 | [4] 0.116 | [8] 0.044 | [9] -0.016 | [10] -0.093

MTURN (UniProt Q8N3F0)
inactive: [1] 0.042 | [9] 0.085 | [10] -0.413

MTHFSD isoform 3 (UniProt Q2M296)
inactive: [2] -0.078 | [5] -0.091 | [3] -0.011 | [7] -0.035 | [1] 0.001 | [4] -0.121 | [8] 0.005 | [9] 0.011 | [10] -0.096
